This is an account of results in paper PMC10097667.

These are yes or no findings as the source states them, for the method shown. Binding seen in cells or lysates may run through a third protein. Some binding calls cover weakened binding; strength is not graded here. Where a sequence is shown, tags or fusion partners need not be part of it.

The test addresses T1, GFP-PKD1 WT (UniProt Q62101).
T1 sequence: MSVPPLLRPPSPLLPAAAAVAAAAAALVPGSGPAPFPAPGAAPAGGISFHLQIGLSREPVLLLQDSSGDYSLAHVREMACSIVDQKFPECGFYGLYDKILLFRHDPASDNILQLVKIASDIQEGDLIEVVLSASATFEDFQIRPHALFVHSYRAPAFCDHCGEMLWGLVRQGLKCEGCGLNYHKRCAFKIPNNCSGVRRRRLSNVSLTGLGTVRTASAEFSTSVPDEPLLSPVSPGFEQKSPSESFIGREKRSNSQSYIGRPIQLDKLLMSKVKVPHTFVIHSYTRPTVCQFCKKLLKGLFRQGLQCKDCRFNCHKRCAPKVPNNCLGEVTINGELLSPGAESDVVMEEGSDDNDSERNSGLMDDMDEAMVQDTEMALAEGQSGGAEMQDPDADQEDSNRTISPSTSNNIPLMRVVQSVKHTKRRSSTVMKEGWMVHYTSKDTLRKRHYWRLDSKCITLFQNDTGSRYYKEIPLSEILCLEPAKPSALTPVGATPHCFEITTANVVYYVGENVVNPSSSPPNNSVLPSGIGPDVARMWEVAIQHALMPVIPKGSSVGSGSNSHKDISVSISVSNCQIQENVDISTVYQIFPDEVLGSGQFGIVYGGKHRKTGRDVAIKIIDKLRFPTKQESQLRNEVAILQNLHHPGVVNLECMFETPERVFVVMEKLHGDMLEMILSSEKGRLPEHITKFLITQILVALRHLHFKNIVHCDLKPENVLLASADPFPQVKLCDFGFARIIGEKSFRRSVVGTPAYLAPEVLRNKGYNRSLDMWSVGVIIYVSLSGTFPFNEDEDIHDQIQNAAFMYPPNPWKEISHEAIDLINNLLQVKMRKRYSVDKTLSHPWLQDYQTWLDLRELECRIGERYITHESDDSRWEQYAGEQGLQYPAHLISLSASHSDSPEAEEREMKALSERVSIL
The test is described as follows: co-IP; HEK293T cells transiently co-transfected with GFP-PKD WT or GFP vector and HA-Spry2 constructs; cytoplasmic extracts (HEPES 25 mM pH 7.5, NaCl, 1% NP40) incubated with anti-GFP polyclonal rabbit antibody or unspecific rabbit IgG; immunoblot with anti-HA. Background: Immunoblotting shows a protein as a band on a membrane.

B1: HA-Spry2-Nter (truncated mutant spanning residues 1-177 of Spry2) (domain or fragment, UniProt O43597 1-177)
chain: MEARAQSGNGSQPLLQTPRDGGRQRGEPDPRDALTQQVHVLSLDQIRAIRNTNEYTEGPTVVPRPGLKPAPRPSTQHKHERLHGLPEHRQPPRLQHSQVHSSARAPLSRSISTVSSGSRSSTRTSTSSSSSEQRLLGSSFSSGPVADGIIRVQPKSELKPGELKPLSKEDLGLHAYR
On to B1, for which the binding entry is recorded as “no binding”.

B2: HA-Spry2 WT (full-length protein) (protein, UniProt O43597 1-315)
chain: MEARAQSGNGSQPLLQTPRDGGRQRGEPDPRDALTQQVHVLSLDQIRAIRNTNEYTEGPTVVPRPGLKPAPRPSTQHKHERLHGLPEHRQPPRLQHSQVHSSARAPLSRSISTVSSGSRSSTRTSTSSSSSEQRLLGSSFSSGPVADGIIRVQPKSELKPGELKPLSKEDLGLHAYRCEDCGKCKCKECTYPRPLPSDWICDKQCLCSAQNVIDYGTCVCCVKGLFYHCSNDDEDNCADNPCSCSQSHCCTRWSAMGVMSLFLPCLWCYLPAKGCLKLCQGCYDRVNRPGCRCKNSNTVCCKVPTVPPRNFEKPT
Regarding B2, the binding entry is “binds”.

B3: HA-Spry2-Cter (truncated mutant spanning residues 177-315 of Spry2) (domain or fragment, UniProt O43597 177-315)
chain: RCEDCGKCKCKECTYPRPLPSDWICDKQCLCSAQNVIDYGTCVCCVKGLFYHCSNDDEDNCADNPCSCSQSHCCTRWSAMGVMSLFLPCLWCYLPAKGCLKLCQGCYDRVNRPGCRCKNSNTVCCKVPTVPPRNFEKPT
In the case of B3, the binding entry is “binds”.
